Source: PubChem BioAssay AID504764 (Drosophila RNAi Screening Center, 2011)

Purpose: 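Genome-wide screen for regulators of Notch-driven gene expression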 (primary screen)
Cell system: Drosophila Kc167 cells
Knock-down reagent: long dsRNA against Drosophila genes
Timing: about 5 days (4 days dsRNA, then 24 h after transfection)
Conditions: transfection of constitutively active membrane-tethered Notch lacking the extracellular domain, read 24 h later
Detection: 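Light from a Notch-responsive E(spl)m3 luciferase reporter under active Notch, with control-promoter and no-Notch reporter wells to normalise; raw counts from paired wells a and b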
Reading the numbers: induced reporter light, run 1, well a and induced reporter light, run 1, well b: higher = more light from the Notch target reporter with active Notch; control promoter light, run 1, well a and control promoter light, run 1, well b: higher = more light from the viral control promoter (cell number, transfection, viability); uninduced reporter light, run 1, well a: higher = more light from the Notch target reporter without active Notch
Active means: 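Wells with low control signal or poorly matching duplicates excluded; duplicates averaged; per source plate, z beyond ±2 for induced/control log2 ratio or beyond ±1.8 for induced/uninduced marks a hit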
Meaning of the calls: active = modifier hit (raised or lowered Notch signal); inactive = not a hit
The deposit covers about 22,000 reagents; this is an unselected part of those that have a named target and a result. Over the whole deposit, 403 (1.9%) were called active. 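Unnormalised raw counts per well; ratio z-scores behind the hit calls and whether each hit raises or lowers signal are not deposited.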 A plus sign joins genes that one reagent is predicted to hit. The record does not give: the amount of reagent.

no.	Target gene	amplicon	induced reporter light, run 1, well a	induced reporter light, run 1, well b	control promoter light, run 1, well a	control promoter light, run 1, well b	uninduced reporter light, run 1, well a	activity call
1	loh	DRSC01122	1.34e5	1.40e5	2.15e5	1.82e5	11095	inactive
2	loh	DRSC02943	1.19e5	1.52e5	70335	1.02e5	15128	inactive
3	CG2818	DRSC00540	85310	1.13e5	98845	98110	6610	active
4	CG42565	DRSC04154	1.96e5	2.10e5	1.74e5	1.89e5	14140	inactive
5	CG12268	DRSC14491	1.74e5	2.29e5	2.43e5	2.73e5	18660	inactive
6	Top3alpha	DRSC03460	68835	43210	48120	44535	3295	inactive
7	qua	DRSC03598	1.23e5	1.47e5	1.41e5	1.73e5	9790	inactive
8	knk	DRSC15993	68025	64850	65745	43505	3200	inactive
9	Cnep1r1	DRSC20620	1.12e5	1.14e5	1.53e5	1.60e5	13905	inactive
10	tos	DRSC03624	2.43e5	2.65e5	2.39e5	2.33e5	21400	inactive
11	mRpS11	DRSC15732	2.53e5	1.98e5	1.87e5	1.89e5	17645	inactive
12	CRMP	DRSC12073	1.09e5	98245	88810	87770	9380	inactive
13	CRMP	DRSC12345	1.28e5	1.17e5	76145	69320	9460	inactive
14	Dpy-30L2	DRSC08205	1.46e5	1.75e5	1.84e5	1.52e5	8370	inactive
15	CG5080	DRSC00677	2.81e5	2.32e5	2.75e5	3.05e5	19570	inactive
16	fws	DRSC02969	1.49e5	1.71e5	1.36e5	1.56e5	11910	inactive
17	Ir94h	DRSC15232	1.68e5	1.40e5	2.17e5	2.11e5	13505	inactive
18	CG9109	DRSC03139	63145	79635	64400	78005	6125	inactive
19	Femcoat	DRSC18061	1.33e5	1.63e5	2.14e5	2.78e5	11045	inactive
20	CG6429	DRSC06986	1.58e5	1.13e5	1.28e5	1.54e5	8950	inactive
21	LS2	DRSC04340	1.95e5	1.64e5	1.53e5	1.83e5	12955	inactive
22	CG13671	DRSC10030	68550	1.05e5	78910	22330	9050	inactive
23	RN-tre	DRSC07521	99075	1.07e5	1.10e5	1.19e5	8460	inactive
24	CG2611	DRSC02710	1.61e5	1.60e5	1.41e5	1.81e5	12075	inactive
25	CG5746	DRSC15868	1.72e5	1.50e5	2.14e5	2.35e5	14070	inactive
26	CG10237	DRSC02029	2.20e5	2.49e5	1.62e5	2.13e5	15945	inactive
27	CG9162 (retired record)	DRSC03151	1.78e5	1.81e5	1.88e5	2.01e5	15295	inactive
28	CG14780	DRSC18566	1.57e5	1.82e5	2.41e5	2.70e5	11288	inactive
29	CG34203	DRSC03855	61650	61750	66945	87425	8485	inactive
30	Rassf	DRSC15612	1.51e5	1.61e5	2.13e5	2.10e5	14230	inactive
31	CG14810	DRSC17693	54150	63865	82940	92575	6625	inactive
32	CG14810	DRSC17961	75280	87900	1.26e5	1.14e5	6755	inactive
33	Nxf3	DRSC21749						inactive
34	Shc	DRSC11284	1.74e5	1.37e5	89410	72005	7755	active
35	Nepl6	DRSC03242	1.55e5	1.69e5	2.74e5	2.72e5	16915	inactive
36	hll	DRSC01944	2.09e5	2.57e5	1.93e5	2.05e5	16175	inactive
37	CG14285	DRSC14766	1.71e5	1.42e5	1.86e5	1.78e5	13225	inactive
38	Edem1	DRSC18573	1.96e5	1.70e5	2.41e5	2.53e5	13450	inactive
39	CG17574	DRSC06681	99325	95515	1.21e5	1.30e5	10350	inactive
40	mr	DRSC04332	2.29e5	1.90e5	1.77e5	1.92e5	15780	inactive
41	alpha-Man-Ia	DRSC17642	34490	28620	23180	20770	3895	inactive
42	alpha-Man-Ia	DRSC18162	94140	94325	1.34e5	1.75e5	7900	inactive
43	alpha-Man-Ia	DRSC18163	1.06e5	1.02e5	1.53e5	1.65e5	7935	inactive
44	alpha-Man-Ia	DRSC18735	1.48e5	1.26e5	2.22e5	1.75e5	9380	inactive
45	Unc-115b + p24-2	DRSC16492	1.98e5	1.58e5	1.12e5	96580	11885	inactive
46	Hsp70Bb + Hsp70Ba + Hsp70Bc + 1 more	DRSC21247	61605	57610	83190	89230	7185	inactive
47	Hsp70Bb + Hsp70Ba + Hsp70Bc + 1 more	DRSC21248	34735	37845	51160	52545	3715	inactive
48	CG9568	DRSC03265	1.06e5	1.19e5	79770	1.13e5	18155	inactive
49	CG1894	DRSC15396	1.40e5	1.15e5	1.70e5	1.78e5	9450	inactive
50	Caper	DRSC02137	1.87e5	1.94e5	1.30e5	1.48e5	15465	inactive
